Assay [1] has as its target T1, UFD-2 (C. elegans U-box ubiquitin ligase), endogenous (C. elegans (endogenous in worms)) (UniProt Q09349).
T1 sequence: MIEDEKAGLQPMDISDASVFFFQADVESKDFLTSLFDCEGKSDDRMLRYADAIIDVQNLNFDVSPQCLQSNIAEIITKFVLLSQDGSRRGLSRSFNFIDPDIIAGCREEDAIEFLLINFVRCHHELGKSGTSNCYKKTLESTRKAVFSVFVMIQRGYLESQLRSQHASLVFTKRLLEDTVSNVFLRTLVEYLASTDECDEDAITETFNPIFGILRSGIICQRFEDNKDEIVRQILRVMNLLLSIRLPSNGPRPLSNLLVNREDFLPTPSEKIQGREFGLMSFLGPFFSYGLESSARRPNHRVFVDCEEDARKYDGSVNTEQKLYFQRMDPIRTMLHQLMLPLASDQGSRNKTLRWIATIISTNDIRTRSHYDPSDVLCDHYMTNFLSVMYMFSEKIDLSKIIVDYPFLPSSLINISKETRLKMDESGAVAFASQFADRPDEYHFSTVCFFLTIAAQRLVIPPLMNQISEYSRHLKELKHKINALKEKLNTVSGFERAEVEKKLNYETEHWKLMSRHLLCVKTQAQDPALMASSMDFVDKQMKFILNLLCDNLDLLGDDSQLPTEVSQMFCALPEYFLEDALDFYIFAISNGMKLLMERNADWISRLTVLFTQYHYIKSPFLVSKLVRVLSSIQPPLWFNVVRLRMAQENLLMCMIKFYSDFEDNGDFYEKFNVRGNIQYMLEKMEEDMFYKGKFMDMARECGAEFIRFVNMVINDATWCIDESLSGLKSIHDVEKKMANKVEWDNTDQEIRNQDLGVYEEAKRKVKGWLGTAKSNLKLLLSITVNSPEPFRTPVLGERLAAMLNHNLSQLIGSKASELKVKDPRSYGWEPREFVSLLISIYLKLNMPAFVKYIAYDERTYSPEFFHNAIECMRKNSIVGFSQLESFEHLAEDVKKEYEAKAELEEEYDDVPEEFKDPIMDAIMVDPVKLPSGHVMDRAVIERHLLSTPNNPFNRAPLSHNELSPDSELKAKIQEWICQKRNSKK
The assay is described as follows: affinity purification with mass spectrometry; anti-UFD-2 or anti-UNC-45 antibodies cross-linked to ProteinA-Dynabeads; cleared lysate of heat-shocked L4 worms (2.5 h 34 °C, 2 h recovery 16 °C); 1 h 4 °C; washes with 300 mM KCl, 0.05% NP-40; shotgun nanoLC-MS.

By UniProt entry, the sequences of proteins in these tests, tags left out.
UniProt P02566: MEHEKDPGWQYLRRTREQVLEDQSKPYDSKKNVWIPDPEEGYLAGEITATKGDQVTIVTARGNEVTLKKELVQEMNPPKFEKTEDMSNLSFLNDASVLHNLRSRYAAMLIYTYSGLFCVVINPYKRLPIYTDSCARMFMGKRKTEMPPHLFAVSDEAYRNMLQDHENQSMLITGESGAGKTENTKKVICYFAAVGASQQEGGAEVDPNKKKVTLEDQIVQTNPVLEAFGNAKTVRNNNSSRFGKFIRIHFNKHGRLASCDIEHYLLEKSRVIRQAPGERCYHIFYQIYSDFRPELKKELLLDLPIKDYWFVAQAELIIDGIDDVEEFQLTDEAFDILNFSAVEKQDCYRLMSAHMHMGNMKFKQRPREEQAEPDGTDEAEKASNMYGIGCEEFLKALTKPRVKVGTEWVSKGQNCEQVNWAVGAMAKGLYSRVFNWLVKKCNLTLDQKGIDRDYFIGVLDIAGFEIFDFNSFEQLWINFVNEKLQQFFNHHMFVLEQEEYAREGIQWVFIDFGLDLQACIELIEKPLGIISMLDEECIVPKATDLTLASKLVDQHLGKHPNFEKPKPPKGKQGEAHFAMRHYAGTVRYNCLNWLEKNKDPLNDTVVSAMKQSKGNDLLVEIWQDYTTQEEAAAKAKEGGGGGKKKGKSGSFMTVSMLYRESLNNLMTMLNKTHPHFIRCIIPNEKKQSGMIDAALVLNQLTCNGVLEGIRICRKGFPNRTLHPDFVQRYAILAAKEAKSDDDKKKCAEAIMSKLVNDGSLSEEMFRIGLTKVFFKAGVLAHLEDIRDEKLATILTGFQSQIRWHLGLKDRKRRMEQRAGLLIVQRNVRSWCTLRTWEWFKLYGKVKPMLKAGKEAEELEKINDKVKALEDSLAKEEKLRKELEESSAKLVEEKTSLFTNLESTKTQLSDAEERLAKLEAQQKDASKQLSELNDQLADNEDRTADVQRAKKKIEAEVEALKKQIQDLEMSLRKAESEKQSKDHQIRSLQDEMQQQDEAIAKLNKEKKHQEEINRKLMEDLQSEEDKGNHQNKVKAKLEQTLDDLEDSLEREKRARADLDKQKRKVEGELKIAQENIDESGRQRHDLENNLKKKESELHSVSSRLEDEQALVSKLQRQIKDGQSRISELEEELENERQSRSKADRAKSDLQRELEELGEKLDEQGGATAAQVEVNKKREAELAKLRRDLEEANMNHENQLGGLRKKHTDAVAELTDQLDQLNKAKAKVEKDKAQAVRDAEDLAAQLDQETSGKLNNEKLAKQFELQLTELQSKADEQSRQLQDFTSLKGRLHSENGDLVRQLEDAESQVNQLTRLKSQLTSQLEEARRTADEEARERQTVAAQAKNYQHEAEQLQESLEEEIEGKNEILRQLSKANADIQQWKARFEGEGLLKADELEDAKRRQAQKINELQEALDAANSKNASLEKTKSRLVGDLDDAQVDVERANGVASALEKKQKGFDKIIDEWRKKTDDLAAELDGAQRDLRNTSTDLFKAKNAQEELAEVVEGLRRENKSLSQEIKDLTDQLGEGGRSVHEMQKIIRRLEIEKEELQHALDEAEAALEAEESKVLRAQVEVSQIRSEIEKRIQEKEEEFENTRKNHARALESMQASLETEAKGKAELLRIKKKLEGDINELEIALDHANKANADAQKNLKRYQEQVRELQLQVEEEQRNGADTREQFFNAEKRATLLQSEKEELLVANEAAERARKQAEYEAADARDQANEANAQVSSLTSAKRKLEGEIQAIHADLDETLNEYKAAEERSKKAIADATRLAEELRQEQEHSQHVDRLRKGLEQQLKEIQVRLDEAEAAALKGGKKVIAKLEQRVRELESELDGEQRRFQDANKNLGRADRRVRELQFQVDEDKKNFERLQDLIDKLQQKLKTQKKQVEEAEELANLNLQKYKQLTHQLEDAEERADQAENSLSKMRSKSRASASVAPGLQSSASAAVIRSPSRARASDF

Assay [2] concerns the target T1, UFD-2 (C. elegans U-box ubiquitin ligase), endogenous (C. elegans (endogenous in worms)). Description: affinity purification with mass spectrometry; two additional sets of anti-UNC-45 and anti-UFD-2 IPs from the same worm lysate; parallel reaction monitoring (PRM) of selected UNC-45 and UFD-2 peptides; no peptides in control IPs.
Assay [3] shares this target. The assay is described as follows: affinity purification with mass spectrometry; anti-UFD-2 or anti-UNC-45 antibodies cross-linked to ProteinA-Dynabeads; cleared lysate of heat-shocked L4 worms (2.5 h 34 °C, 2 h recovery 16 °C); 1 h 4 °C; washes with 300 mM KCl, 0.05% NP-40; shotgun nanoLC-MS. This is another data set of the same source.
The target in assay [4] is T2, UNC-45 (C. elegans myosin chaperone), endogenous (C. elegans (endogenous in worms)) (UniProt G5EG62).
T2 sequence: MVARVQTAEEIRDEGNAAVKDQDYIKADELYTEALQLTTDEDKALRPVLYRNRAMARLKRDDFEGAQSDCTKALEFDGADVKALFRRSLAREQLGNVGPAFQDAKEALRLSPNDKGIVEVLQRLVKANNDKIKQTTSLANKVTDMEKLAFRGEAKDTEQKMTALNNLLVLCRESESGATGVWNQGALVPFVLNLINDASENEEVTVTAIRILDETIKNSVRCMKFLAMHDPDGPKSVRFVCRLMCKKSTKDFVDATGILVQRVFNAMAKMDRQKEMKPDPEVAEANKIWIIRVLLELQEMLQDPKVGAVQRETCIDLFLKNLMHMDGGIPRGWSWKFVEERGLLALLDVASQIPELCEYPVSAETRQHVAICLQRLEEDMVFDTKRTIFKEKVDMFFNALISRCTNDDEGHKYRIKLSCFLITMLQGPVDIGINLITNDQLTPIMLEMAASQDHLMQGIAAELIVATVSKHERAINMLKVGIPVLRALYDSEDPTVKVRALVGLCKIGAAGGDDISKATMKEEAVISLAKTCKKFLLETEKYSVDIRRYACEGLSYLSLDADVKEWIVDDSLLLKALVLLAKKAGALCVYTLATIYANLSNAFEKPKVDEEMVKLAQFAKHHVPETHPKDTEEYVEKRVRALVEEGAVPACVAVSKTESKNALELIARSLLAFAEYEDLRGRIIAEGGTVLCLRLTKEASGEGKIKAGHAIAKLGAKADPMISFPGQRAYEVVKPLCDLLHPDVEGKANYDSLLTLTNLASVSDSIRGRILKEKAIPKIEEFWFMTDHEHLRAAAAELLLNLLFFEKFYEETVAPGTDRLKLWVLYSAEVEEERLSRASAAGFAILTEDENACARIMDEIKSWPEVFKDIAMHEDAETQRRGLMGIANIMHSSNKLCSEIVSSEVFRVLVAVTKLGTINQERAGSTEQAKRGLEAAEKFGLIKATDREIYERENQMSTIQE
The description is as above.

These are yes or no findings as the source states them, for the method shown. Binding seen in cells or lysates may run through a third protein. These calls come from enrichment with a bait or labelling near it, and not all partners need be listed.

Consider “MHC-B (myosin heavy chain B, UNC-54), endogenous (from UniProt P02566 1-1963)”, for which, in assay [1], the binding result is given as “binds”.

B1: UNC-45 wild type, crystallised (crystal form UNC-45_(717)) (natural protein, C. elegans, UniProt G5EG62 1-961, looked up)
chain: T2 sequence
notes: UNC-45, C. elegans, wild-type full-length protein used for crystallisation
B1: the binding entry in assay [2] and in assay [3] was “binds weakly” throughout.

B2: UFD-2 (C. elegans U-box ubiquitin ligase), endogenous (enzyme, UniProt Q09349 1-984)
chain: T1 sequence
Turning to B2, the binding entry in assay [4] is on record as “binds weakly”.

For the origin of these results see article PMC5797217, “UFD-2 is an adaptor-assisted E3 ligase targeting unfolded proteins” (Nature Communications, 2018).
